Results are given in words; binding and its absence hold for the method and conditions named. Some entries that bind do so weakly or less than the wild type.
Assays:
[1] = target: T1, rpoB, core β subunit of the plastid-encoded RNA polymerase (PEP) (Arabidopsis thaliana (endogenous in seedlings)) (UniProt P50546); experiment: native gel or EMSA; blue-native PAGE and immunoblots with anti-rpoB and anti-HMR; Col-0 seedlings grown in darkness
T1 sequence: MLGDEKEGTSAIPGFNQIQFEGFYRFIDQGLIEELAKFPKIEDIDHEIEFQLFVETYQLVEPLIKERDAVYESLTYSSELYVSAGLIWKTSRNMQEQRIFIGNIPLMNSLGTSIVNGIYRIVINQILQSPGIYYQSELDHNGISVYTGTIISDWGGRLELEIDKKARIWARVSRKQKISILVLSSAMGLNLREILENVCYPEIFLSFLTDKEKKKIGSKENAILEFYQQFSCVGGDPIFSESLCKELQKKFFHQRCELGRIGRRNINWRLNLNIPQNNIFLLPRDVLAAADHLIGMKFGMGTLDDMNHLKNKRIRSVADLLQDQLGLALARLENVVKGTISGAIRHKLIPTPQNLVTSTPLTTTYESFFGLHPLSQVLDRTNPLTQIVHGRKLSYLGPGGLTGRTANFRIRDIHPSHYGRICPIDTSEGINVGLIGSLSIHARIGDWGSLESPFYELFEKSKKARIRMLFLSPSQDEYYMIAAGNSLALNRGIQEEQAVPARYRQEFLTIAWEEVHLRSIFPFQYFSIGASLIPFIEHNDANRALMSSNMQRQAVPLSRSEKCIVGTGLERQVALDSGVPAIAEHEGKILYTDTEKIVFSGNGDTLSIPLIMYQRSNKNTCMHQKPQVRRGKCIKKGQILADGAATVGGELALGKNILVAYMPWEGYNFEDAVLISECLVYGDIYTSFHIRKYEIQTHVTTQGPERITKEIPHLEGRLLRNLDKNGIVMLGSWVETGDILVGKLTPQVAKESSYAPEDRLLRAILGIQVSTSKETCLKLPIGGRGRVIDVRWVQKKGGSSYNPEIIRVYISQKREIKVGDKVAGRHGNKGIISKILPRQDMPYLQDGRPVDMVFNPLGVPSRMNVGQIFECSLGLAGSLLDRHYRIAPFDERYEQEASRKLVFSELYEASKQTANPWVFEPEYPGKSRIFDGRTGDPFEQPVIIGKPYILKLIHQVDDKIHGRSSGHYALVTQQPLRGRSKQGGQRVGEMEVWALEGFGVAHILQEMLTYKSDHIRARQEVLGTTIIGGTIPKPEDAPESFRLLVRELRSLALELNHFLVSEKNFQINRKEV

[2] = target: T1, rpoB, core β subunit of the plastid-encoded RNA polymerase (PEP) (Arabidopsis thaliana (endogenous in seedlings)); experiment: condition: only in phyA-211/phyB-9 and phyABCDE mutant seedlings; native gel or EMSA; blue-native PAGE and immunoblots with anti-rpoB and anti-HMR; phyA-211/phyB-9 and phyABCDE mutant seedlings grown in R light
[3] = target: T1, rpoB, core β subunit of the plastid-encoded RNA polymerase (PEP) (Arabidopsis thaliana (endogenous in seedlings)); experiment: condition: only in rcb-1/PBG, rcb-2/PBG and rcb-10 mutant seedlings; native gel or EMSA; blue-native PAGE and immunoblots with anti-rpoB and anti-HMR; rcb-1/PBG, rcb-2/PBG and rcb-10 mutant seedlings grown in 10 μmol m^-2 s^-1 R light
[4] = target: T1, rpoB, core β subunit of the plastid-encoded RNA polymerase (PEP) (Arabidopsis thaliana (endogenous in seedlings)); experiment: native gel or EMSA; blue-native PAGE (4-16%) of native extracts of 4-d-old Col-0 seedlings grown in 10 μmol m^-2 s^-1 R light, treated with 1% n-dodecyl β-D-maltoside and Benzonase; immunoblots with anti-rpoB and anti-HMR

binding [2]: no binding
binding [3]: no binding
binding [4]: binds
B1: HEMERA (HMR)/pTAC12, PEP-associated protein (protein, UniProt F4IHY7 31-527)
chain: VKCGFPLKTLHAGITSRDRSLRHCIKCKKEDGDGDVSEGSKKSEEGFEYVTVERHPYHSYMDSTSGKLEPASGARASIPGEDYWPEGTSSRVRAARAPQPAGESSSFPSYGKNPGSRRKKNRKATEENVTVETNDEVSDSEDSSEEEENDSSDGFVTYKNEFEREEEETGFELDKKLGRPHPFIDPTKKKQIEKTLTSDESWWNWRKPEKEQWSRWQRRRPDVETVFLKAMAETGQVKLYGEEPTLTETSLYRARRHLFKEERLQAERERLAKEGPMAFYSEWVKAWKRDTSREAVQKHFEETGEDENTQLIEMFSHQTDREYRIMMGTDIRIKRDPLAMRMREDQIKQIWGGDPVYPTINYIQDPNAVMDFRGPDFHEPTPNMLSYLKENGKVISREMHEALLTKEKTEQLEVPDMDDAMAQAVDIGENDDDEDDADVEKDDEKVPRNWSVLKETPELRTAKPKPKKEGRMSLDEAVDDAENLTDFLMDFEEETDP
binding [1]: no binding (condition: seedlings grown in the dark)
